The other results are listed elsewhere or left out.
compound: c1cn2cc(-c3ccc4cn[nH]c4c3)nc(Nc3ccc(N4CCOCC4)cc3)c2n1 [entospletinib]; assay: log2 fold change, soluble protein after heating vs DMSO (PISA); higher = thermal stabilisation; K562 cells, 10 uM, 30 min; active = over 0.2 and 3.5 SD of the protein, either way, in both replicates (recomputed)
Method in brief: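 K562 cells (2×10^6 cells/mL) were treated with 10 μM compound for 30 min, and aliquots were heated for 3 min over 48°C-58°C. Pooled aliquots were extracted in PBS with 0.5% NP-40 at 4°C, and the supernatant after 21,000xg for 90 min was measured by TMTpro 16plex LC-MS/MS with channel sums equalised. Reported thermal stability, relative to control samples and from duplicates, is a log2 fold change.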

By UniProt entry, the sequences of proteins in these tests, tags left out. Where a name states a change or a piece, a line headed by the entry shows the natural chain unless it says otherwise.
UniProt P56937: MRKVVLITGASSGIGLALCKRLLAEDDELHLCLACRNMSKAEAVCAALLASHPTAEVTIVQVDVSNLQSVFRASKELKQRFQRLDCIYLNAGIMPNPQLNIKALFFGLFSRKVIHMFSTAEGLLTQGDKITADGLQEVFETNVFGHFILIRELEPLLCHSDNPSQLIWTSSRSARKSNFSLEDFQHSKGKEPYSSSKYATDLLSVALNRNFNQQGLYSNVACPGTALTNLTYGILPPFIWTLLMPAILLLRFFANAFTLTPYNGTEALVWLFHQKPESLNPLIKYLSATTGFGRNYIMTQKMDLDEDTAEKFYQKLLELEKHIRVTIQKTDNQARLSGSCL
UniProt Q96RW7: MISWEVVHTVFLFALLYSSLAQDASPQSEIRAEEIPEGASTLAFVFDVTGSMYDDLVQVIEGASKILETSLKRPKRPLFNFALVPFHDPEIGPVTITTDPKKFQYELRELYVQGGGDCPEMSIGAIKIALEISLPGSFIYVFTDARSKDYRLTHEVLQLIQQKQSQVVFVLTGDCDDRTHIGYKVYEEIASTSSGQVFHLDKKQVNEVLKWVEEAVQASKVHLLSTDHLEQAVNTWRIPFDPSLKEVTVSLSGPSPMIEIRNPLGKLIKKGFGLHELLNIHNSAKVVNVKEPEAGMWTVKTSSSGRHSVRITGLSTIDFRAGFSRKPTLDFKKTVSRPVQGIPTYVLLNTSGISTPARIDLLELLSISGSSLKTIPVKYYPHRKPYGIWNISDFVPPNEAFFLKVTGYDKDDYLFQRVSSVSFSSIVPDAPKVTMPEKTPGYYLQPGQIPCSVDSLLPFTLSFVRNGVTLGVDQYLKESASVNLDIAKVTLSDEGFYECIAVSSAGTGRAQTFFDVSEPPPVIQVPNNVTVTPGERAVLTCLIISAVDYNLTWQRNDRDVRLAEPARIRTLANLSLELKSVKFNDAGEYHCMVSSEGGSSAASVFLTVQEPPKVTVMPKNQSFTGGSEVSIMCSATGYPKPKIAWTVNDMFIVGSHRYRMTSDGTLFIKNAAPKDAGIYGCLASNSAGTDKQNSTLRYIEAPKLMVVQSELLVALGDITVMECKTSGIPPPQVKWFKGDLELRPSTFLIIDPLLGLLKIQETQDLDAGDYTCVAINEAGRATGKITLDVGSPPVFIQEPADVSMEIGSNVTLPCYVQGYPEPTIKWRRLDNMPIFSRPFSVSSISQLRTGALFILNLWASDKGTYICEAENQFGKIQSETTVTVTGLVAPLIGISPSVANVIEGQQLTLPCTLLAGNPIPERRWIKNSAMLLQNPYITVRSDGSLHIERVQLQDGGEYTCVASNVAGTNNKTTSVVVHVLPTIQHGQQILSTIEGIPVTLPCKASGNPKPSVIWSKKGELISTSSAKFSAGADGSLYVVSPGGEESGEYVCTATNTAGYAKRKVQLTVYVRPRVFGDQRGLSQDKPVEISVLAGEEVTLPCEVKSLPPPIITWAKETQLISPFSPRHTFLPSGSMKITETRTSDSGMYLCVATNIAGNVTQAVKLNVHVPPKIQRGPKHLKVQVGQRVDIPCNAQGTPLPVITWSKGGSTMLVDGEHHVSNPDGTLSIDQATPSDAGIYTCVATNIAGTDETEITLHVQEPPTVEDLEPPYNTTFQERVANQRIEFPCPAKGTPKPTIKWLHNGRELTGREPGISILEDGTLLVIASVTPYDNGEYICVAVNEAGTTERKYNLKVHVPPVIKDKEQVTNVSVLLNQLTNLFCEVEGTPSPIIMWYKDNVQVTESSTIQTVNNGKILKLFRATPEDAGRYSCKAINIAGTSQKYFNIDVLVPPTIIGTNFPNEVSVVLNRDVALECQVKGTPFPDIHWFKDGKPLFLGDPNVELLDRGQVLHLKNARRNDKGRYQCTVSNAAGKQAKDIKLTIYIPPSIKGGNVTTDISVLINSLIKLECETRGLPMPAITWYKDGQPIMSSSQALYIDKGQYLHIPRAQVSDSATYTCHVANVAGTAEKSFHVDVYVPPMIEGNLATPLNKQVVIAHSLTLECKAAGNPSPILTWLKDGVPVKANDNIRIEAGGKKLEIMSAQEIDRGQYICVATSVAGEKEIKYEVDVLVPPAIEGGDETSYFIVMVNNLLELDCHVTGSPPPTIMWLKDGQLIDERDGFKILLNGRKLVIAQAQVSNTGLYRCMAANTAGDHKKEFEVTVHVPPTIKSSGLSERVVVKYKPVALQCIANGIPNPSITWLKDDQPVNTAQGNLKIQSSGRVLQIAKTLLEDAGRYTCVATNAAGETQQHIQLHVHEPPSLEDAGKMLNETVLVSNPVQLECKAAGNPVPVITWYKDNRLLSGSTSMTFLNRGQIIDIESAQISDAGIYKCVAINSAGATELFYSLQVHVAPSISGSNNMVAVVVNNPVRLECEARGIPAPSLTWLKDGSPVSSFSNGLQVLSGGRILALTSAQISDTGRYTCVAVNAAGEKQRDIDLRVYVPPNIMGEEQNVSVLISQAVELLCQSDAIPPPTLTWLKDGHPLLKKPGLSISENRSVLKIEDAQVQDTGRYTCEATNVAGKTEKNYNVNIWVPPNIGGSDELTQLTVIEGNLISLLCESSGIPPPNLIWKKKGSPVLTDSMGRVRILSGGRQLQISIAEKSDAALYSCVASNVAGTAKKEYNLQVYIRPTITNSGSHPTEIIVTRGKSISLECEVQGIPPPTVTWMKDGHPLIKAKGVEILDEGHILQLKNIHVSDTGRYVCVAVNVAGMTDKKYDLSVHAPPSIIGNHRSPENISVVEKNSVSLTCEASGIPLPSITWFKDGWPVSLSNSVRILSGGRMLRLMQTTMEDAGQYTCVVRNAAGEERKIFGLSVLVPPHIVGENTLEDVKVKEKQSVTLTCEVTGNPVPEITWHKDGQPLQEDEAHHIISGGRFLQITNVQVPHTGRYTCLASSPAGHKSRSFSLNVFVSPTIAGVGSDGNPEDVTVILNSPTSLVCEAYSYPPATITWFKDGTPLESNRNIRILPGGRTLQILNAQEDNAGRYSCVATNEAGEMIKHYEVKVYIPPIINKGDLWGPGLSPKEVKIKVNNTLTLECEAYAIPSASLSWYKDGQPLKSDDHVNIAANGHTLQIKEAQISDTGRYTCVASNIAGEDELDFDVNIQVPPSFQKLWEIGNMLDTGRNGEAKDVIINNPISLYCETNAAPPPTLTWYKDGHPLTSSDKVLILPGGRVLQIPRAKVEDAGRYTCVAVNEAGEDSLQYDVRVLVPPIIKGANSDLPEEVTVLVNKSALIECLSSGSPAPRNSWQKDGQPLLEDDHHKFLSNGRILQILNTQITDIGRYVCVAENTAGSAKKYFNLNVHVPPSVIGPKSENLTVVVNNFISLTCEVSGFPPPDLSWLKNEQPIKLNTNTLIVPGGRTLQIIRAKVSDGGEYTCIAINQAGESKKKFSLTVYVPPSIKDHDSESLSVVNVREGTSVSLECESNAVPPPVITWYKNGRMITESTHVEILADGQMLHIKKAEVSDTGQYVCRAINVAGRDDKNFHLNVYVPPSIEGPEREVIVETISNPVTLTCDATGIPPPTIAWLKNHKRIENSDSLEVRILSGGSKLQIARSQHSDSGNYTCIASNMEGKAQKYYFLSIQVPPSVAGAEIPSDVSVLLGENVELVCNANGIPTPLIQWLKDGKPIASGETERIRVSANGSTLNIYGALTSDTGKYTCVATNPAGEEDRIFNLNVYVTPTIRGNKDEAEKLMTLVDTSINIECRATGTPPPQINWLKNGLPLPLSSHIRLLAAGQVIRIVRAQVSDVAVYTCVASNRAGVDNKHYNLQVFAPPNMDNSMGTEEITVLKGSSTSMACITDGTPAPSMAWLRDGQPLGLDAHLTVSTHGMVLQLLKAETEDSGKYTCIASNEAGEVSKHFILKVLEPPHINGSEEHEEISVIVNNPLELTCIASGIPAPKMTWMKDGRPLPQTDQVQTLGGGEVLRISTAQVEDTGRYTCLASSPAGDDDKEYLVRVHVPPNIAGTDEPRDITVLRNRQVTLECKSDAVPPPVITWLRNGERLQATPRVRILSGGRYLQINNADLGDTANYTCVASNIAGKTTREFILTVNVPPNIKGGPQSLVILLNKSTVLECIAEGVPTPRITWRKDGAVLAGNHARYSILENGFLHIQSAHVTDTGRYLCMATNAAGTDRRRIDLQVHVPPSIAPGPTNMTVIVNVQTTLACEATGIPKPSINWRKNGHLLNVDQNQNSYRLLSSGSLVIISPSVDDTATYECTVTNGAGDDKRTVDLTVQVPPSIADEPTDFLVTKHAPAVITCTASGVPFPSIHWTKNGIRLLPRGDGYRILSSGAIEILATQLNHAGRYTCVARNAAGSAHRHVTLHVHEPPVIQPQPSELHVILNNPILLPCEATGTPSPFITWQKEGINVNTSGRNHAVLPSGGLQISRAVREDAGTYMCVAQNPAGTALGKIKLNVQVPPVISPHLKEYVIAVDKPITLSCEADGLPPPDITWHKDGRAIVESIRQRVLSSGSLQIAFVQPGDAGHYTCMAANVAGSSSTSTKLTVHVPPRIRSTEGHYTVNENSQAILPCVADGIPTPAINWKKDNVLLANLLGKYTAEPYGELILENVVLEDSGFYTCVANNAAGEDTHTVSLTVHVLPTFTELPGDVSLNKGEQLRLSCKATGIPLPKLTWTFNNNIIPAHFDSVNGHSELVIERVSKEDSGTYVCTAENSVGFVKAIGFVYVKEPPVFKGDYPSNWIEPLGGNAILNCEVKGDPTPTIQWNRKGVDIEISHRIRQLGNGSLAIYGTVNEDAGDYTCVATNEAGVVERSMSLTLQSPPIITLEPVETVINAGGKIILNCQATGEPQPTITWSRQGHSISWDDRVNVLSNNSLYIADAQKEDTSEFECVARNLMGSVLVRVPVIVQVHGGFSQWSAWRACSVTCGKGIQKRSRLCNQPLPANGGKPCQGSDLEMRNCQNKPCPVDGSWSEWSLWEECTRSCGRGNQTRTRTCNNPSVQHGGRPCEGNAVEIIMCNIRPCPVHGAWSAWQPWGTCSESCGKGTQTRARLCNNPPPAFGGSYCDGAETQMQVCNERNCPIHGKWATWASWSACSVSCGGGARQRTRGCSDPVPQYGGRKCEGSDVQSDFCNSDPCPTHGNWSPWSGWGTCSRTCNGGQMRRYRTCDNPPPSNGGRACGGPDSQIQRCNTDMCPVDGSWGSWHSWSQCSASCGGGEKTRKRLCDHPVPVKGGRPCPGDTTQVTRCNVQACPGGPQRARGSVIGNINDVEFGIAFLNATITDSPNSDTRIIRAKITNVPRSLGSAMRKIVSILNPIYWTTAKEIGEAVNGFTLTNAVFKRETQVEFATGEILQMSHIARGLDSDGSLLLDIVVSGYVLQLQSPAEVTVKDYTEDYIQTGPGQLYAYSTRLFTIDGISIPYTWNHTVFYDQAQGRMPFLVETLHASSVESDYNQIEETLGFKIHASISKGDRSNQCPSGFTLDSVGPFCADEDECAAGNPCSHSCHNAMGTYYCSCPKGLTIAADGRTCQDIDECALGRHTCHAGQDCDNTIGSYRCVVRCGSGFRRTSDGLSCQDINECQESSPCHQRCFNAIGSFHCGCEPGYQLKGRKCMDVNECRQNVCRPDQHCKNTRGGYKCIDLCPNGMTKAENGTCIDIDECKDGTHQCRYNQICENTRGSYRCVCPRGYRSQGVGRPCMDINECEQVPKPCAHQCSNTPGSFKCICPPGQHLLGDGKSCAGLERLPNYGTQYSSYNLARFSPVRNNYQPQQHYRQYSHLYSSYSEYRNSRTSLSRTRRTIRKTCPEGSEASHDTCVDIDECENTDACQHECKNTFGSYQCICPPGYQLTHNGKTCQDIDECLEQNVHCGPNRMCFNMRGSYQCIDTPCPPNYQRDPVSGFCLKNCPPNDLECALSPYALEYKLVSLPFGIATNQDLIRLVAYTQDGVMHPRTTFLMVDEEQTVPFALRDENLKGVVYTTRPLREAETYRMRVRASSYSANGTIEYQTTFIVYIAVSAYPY
UniProt P04792, whole entry, looked up: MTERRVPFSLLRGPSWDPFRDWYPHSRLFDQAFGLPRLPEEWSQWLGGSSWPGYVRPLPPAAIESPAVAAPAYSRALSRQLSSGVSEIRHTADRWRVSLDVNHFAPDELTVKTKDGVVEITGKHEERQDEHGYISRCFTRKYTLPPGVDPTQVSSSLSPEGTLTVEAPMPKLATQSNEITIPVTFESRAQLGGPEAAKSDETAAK
UniProt Q6DN03, whole entry, looked up: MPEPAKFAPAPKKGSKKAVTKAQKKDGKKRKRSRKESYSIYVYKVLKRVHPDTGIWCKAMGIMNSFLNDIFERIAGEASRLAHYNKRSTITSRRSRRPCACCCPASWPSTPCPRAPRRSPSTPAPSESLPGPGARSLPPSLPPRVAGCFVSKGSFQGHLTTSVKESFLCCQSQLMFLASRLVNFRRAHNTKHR
UniProt Q9NQE9: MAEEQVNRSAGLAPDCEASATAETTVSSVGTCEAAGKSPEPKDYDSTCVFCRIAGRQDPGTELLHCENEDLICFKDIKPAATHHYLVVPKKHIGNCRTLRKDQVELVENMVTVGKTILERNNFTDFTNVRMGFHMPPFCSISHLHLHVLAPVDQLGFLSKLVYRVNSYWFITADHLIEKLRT

log2 fold change, inactive:
HSD17B7 (UniProt P56937) -0.029, HIBCH (UniProt Q6NVY1) 0.016, HSP90B1 (UniProt P14625) -0.037, HSPA4L (UniProt O95757) -0.011, HK1 isoform 2 (UniProt P19367) -0.13, HGH1 (UniProt Q9BTY7) 0.16, HSP90AB3P (UniProt Q58FF7) 0.016, HSD17B8 (UniProt Q92506) -0.022, HMCN1 (UniProt Q96RW7) 0.136, HMGB2 (UniProt P26583) 0.033, HYOU1 (UniProt Q9Y4L1) -0.02, HNRNPL (UniProt P14866) 0.183, HSPA1A (UniProt P0DMV8) 0.061, HTATSF1 (UniProt O43719) 0, HNRNPM (UniProt P52272) 0.062, ICAM5 (UniProt Q9UMF0) -0.048, HNRNPD isoform 4 (UniProt Q14103) 0.181, HSPD1 (UniProt P10809) 0.003, HNRNPU (UniProt Q00839) -0.039, HSP90AB1 (UniProt P08238) 0.013, IBA57 (UniProt Q5T440) 0.005, HSPB1 (UniProt P04792) 0.017, HMGN5 (UniProt P82970) -0.015, HSPA5 (UniProt P11021) 0.012, HMGCLL1 (UniProt Q8TB92) -0.043, HM13 isoform 2 (UniProt Q8TCT9) -0.024, HMGXB4 (UniProt Q9UGU5) -0.207, HIST2H2AA3 (UniProt Q6FI13) -0.024, HIST2H2BC (UniProt Q6DN03) 0.131, HNRNPA1 (UniProt H0YH80) 0.208, HINT3 (UniProt Q9NQE9) -0.027, HMBS (UniProt P08397) 0.006, HSBP1 (UniProt O75506) -0.029, HNRNPA2B1 (UniProt P22626) 0.119, HIRIP3 (UniProt Q9BW71) -0.029

— the supplement of paper PMC10849652
